From the supplement of paper PMC10849652
Some of the results follow. Residues, ends and D or L forms follow the SMILES beside them. *: point of attachment. Cbz = O=C(OCc1ccccc1)*

Protein sequences, listed by entry. Tags and fused reporters are not part of them. Lines headed by an entry give the natural chain unless they say otherwise; changes in a name come on top.
UniProt P61960, whole entry, looked up: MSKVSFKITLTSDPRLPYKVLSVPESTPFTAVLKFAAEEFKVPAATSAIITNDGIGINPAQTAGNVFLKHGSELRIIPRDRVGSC
UniProt Q8IWV7: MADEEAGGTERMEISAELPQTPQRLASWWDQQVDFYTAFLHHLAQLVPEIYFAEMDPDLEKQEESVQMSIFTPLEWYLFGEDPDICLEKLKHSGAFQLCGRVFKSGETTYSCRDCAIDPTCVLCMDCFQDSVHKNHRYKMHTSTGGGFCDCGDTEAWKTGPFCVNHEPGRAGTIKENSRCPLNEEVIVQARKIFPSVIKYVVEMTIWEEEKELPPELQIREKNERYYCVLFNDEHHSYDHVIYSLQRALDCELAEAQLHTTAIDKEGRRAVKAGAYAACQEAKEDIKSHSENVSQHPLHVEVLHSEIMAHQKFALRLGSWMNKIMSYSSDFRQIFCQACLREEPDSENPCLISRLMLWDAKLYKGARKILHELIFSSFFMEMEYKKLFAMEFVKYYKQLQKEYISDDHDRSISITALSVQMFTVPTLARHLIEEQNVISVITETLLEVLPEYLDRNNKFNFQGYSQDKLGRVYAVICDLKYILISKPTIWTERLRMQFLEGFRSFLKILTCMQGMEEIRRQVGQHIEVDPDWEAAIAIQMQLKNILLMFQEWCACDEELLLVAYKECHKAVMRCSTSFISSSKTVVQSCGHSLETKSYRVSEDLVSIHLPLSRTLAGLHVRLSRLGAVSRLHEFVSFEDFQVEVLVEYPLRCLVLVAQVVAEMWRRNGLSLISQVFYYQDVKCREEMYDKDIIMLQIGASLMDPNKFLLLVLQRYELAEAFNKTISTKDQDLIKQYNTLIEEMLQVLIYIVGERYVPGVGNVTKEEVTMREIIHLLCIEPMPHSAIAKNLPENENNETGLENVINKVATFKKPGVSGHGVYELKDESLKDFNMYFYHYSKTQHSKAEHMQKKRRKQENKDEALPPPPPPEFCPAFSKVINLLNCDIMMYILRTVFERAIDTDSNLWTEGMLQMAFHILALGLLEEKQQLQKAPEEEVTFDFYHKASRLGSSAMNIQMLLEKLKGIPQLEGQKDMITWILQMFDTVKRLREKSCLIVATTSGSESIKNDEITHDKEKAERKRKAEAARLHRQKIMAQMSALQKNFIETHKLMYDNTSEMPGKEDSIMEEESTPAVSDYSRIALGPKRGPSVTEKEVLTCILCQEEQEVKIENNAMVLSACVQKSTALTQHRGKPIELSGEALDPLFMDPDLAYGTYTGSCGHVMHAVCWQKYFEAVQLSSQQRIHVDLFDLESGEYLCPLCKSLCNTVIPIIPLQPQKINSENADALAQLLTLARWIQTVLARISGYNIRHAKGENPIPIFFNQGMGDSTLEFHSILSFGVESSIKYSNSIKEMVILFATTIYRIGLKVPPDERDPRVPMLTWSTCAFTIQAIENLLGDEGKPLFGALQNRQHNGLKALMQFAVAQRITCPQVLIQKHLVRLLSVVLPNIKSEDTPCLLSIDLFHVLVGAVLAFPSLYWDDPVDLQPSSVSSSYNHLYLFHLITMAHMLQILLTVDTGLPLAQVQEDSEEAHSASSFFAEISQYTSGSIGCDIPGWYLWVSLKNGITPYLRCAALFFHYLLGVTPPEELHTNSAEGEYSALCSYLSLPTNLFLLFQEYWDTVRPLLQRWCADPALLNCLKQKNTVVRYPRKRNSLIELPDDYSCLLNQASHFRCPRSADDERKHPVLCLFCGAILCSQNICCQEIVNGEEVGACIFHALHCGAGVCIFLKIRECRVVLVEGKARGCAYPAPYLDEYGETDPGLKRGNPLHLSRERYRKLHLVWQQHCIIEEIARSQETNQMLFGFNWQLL
UniProt O94874: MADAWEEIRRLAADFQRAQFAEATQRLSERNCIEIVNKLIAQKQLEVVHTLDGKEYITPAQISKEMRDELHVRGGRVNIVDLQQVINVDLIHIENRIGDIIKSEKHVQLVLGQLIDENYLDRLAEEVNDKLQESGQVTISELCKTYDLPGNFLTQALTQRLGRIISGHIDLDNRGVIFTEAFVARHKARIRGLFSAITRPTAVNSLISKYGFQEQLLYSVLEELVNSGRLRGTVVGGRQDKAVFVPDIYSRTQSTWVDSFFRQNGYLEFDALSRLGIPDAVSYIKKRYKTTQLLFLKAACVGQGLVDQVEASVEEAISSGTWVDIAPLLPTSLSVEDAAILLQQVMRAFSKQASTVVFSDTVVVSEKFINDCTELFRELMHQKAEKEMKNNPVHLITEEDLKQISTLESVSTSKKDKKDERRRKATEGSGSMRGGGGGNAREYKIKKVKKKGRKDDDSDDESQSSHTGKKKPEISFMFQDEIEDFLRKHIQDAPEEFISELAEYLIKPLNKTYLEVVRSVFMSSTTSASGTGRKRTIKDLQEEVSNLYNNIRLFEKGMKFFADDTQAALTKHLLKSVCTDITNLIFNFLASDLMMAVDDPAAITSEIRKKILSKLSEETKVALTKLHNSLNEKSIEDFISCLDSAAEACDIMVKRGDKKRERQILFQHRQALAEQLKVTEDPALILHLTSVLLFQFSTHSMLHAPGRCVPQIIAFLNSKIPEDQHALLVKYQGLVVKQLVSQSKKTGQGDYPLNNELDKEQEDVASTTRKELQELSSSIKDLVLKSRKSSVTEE
UniProt Q9UDW1: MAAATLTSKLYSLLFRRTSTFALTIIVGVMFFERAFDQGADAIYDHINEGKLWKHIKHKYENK
UniProt Q9Y6I4: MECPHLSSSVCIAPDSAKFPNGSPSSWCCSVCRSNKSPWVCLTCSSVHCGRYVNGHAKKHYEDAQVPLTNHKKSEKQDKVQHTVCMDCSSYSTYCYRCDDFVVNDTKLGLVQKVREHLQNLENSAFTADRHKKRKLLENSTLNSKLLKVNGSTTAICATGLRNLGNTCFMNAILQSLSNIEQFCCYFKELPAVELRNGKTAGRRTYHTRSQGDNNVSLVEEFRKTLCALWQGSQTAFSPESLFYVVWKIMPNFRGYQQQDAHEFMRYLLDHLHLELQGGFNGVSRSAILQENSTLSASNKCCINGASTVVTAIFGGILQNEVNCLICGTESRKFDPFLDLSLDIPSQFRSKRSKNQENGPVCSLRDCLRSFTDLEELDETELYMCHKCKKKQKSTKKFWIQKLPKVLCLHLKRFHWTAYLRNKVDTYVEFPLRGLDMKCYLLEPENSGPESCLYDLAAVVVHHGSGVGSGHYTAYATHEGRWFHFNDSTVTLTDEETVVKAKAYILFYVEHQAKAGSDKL
UniProt P15498: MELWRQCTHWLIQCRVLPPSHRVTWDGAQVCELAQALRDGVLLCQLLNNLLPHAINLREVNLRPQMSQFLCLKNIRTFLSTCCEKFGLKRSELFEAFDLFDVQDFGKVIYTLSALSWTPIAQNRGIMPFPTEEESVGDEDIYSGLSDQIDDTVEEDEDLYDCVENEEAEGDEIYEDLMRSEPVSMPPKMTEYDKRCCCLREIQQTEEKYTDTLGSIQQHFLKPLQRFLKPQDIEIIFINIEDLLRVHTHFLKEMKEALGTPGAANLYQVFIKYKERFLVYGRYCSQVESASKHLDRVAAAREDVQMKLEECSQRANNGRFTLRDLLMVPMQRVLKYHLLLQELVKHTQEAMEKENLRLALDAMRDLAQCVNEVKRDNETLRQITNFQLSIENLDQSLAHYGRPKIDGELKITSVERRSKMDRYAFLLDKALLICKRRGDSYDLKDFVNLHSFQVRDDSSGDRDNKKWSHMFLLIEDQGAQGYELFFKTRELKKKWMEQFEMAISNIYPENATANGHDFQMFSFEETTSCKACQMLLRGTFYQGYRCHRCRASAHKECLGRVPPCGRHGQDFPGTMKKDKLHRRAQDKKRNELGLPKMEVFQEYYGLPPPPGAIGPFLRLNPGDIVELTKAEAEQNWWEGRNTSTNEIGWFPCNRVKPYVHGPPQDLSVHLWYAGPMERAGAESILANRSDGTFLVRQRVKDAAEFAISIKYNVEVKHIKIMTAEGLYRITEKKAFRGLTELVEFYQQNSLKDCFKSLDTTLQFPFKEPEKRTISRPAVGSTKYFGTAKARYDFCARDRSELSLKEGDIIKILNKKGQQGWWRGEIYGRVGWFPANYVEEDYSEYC
UniProt Q9BTM9: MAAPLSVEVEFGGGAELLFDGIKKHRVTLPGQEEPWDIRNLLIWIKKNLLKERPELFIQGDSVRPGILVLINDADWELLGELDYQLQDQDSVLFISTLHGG
UniProt Q93009, whole entry, looked up: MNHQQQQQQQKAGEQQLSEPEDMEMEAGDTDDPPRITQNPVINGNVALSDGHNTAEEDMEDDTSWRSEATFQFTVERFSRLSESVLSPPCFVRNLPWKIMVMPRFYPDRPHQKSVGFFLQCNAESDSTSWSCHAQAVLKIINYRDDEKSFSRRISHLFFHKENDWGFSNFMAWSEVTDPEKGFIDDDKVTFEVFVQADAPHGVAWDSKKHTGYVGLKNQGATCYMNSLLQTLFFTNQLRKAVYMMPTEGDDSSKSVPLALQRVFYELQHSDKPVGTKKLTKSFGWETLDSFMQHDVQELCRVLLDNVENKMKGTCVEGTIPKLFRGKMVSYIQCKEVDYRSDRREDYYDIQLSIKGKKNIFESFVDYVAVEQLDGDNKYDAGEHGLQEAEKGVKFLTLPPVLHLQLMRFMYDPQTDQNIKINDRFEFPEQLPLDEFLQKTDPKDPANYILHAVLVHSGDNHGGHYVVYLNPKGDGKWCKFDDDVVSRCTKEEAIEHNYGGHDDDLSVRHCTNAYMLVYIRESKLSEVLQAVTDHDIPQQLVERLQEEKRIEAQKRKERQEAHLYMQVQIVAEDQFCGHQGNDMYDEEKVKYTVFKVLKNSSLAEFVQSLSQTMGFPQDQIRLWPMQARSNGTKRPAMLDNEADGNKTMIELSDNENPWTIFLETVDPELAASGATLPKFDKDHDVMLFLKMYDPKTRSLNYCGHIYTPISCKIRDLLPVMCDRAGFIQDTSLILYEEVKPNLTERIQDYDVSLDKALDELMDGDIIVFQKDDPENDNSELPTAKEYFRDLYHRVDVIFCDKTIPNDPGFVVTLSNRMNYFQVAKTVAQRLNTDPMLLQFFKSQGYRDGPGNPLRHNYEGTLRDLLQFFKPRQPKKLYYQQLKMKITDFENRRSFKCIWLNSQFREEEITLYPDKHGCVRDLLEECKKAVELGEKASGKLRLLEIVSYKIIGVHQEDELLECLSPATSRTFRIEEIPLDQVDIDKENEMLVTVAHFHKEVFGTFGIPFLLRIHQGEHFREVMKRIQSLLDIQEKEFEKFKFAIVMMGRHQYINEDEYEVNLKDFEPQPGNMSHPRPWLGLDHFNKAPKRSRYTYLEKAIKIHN

Legend:
Experiment in all cases: log2 fold change, soluble protein after heating vs DMSO (PISA); higher = thermal stabilisation; K562 cells, 10 uM, 30 min; active = over 0.2 and 3.5 SD of the protein, either way, in both replicates (recomputed)
[1] = compound: C#Cc1cccc(Nc2ncnc3cc(OCCOC)c(OCCOC)cc23)c1 [erlotinib]
In short: (§1)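 Thermal stability values are relative to control samples and come from duplicates. They are expressed as log2 fold changes. For measurement, K562 cells (2×10^6 cells/mL) received 10 μM compound for 30 min, and aliquots were heated for 3 min over 48°C-58°C, pooled, and extracted at 4°C in PBS with 0.5% NP-40. Soluble protein, the supernatant after 21,000xg for 90 min, was quantified by TMTpro 16plex LC-MS/MS with equalised channel sums.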

[2] = compound: C/C(=N\NC(=O)C1=CC(=CC=C1)S(=O)(=O)N2CCOCC2)/C3=C(C=CC(=C3)Cl)O
In short: as §1

[3] = compound: C1=CC(=C(C=C1Cl)C2=NC3=NC=CN=C3C(=N2)NC4=CC=NC=C4)F
In short: as §1

[4] = compound: C1=CC(=CC=C1C2=NC3=C(N2)C=C(C=C3)C(=O)N)OC4=CC=C(C=C4)Cl
In short: as §1

[5] = compound: C1=CC2=C(C=CC(=C2)/C=C\3/C(=O)NC(=NCC4=CC=CS4)S3)N=C1
In short: as §1

[6] = compound: C1=CC2=NC=CN=C2C=C1/C=C/3\C(=O)NC(=O)S3
In short: as §1

[7] = compound: C1=CC=C(C=C1)C2=NC(=C(N2)C3=CC=NC=C3)C4=CC(=C(C=C4)Cl)O
In short: as §1

[8] = compound: C1=CC=C2C(=C1)C3=NNC4=CC=CC(=C43)C2=O
In short: as §1

[9] = compound: C1CCN(C1)C(=O)NC2=CC=CC(=C2)NC3=NC=C(C(=N3)NCCC4=CN=CN4)Br
In short: as §1

[10] = compound: C1CN(CCC1(CC2=CC=C(C=C2)Cl)N)C3=NC=NC4=C3C=CN4
In short: as §1

[11] = compound: C1COCCN1CCN2C3=CC=CC=C3N=C2NC(=O)C4=CC(=CC=C4)[N+](=O)[O-] [IRAK-1-4 Inhibitor I]
In short: as §1

[12] = compound: C=CC(=O)N1CCC[C@@H](n2nc(-c3ccc(Oc4ccccc4)cc3)c3c(N)ncnc32)C1 [ibrutinib]
In short: as §1

[13] = compound: CC(=O)c1cnc2ccc(-c3cc(Cl)c(O)c(Cl)c3)nc2c1N[C@H]1CC[C@H](CN(C)C)CC1
In short: as §1

[14] = compound: CC(C)(C)Cn1c(N)nc2ccc(-c3[nH]c(C(C)(C)C)nc3-c3ccc(F)cc3)nc21 [ralimetinib]
In short: as §1

[15] = compound: CC(C)(O)CC(=O)NCCn1ccc2ncnc(Nc3ccc(Oc4cccc(C(F)(F)F)c4)c(Cl)c3)c21
In short: as §1

[16] = compound: CC(C)C1=C2N=C(C=C(N2N=C1)NCC3=CC=CC=C3)NCCCCCCN
In short: as §1

[17] = compound: CC(C)C[C@@H](C=O)NC(=O)[C@H](CC(C)C)NC(=O)[C@H](CC(C)C)NC(=O)OCc1ccccc1
In short: as §1

[18] = compound: CC(C)N(C[C@H]1O[C@@H](n2cnc3c(N)ncnc32)[C@H](O)[C@@H]1O)[C@H]1C[C@@H](CCc2nc3cc(C(C)(C)C)ccc3[nH]2)C1 [pinometostat]
In short: as §1

[19] = compound: CC1=C(C2=C(C=C1)C(=O)C3=CC=CC=C3N2CCCN)C
In short: as §1

[20] = compound: CC1=C(C(CC(=O)N1)C2=CC=C(C=C2)C(F)(F)F)C(=O)NC3=C(C=C4C(=C3)C=NN4)F
In short: as §1

Measured: log2 fold change

UFM1 (UniProt P61960)
inactive: [1] 0.026 | [2] 0.072 | [3] 0.093 | [4] 0.064 | [5] -0.015 | [6] -0.002 | [7] 0.12 | [8] 0.172 | [9] -0.297 | [10] 0.088 | [11] 0.219 | [12] 0.026 | [13] 0.003 | [14] 0 | [15] -0.117 | [16] 0.06 | [17] 0.055 | [18] 0.013 | [19] 0.133

UBR1 (UniProt Q8IWV7)
inactive: [1] 0.233 | [2] 0.201 | [3] 0.006 | [4] -0.116 | [5] 0.009 | [6] -0.073 | [8] -0.054 | [12] -0.12 | [13] 0.072 | [15] 0.023 | [16] 0.086 | [20] -0.175

UFL1 (UniProt O94874)
inactive: [1] 0.06 | [2] 0.075 | [3] 0.037 | [4] -0.03 | [5] 0.021 | [6] 0.021 | [7] 0.069 | [8] 0.096 | [9] -0.012 | [10] -0.101 | [11] -0.048 | [12] -0.037 | [13] -0.022 | [14] 0.073 | [15] -0.055 | [16] -0.142 | [17] 0.015 | [18] 0.042 | [19] 0.026

UQCR10 (UniProt Q9UDW1)
inactive: [1] -0.026 | [2] 0.056 | [3] 0.069 | [4] -0.023 | [5] 0.034 | [6] 0.014 | [7] 0.046 | [8] -0.003 | [9] 0.006 | [10] 0 | [11] 0.036 | [12] 0.019 | [13] -0.077 | [14] -0.05 | [15] -0.056 | [16] 0.031 | [17] -0.127 | [18] -0.016 | [19] 0.057

USP3 (UniProt Q9Y6I4)
inactive: [1] 0.099 | [2] 0.114 | [3] 0.121 | [4] 0.004 | [5] -0.062 | [6] 0.014 | [7] 0.057 | [8] -0.052 | [9] 0.007 | [10] 0.095 | [11] 0.035 | [12] -0.083 | [13] -0.126 | [14] -0.013 | [15] -0.107 | [16] -0.146 | [17] -0.145 | [18] -0.075 | [19] -0.006

VAV1 (UniProt P15498)
inactive: [1] -0.262 | [2] 0.149 | [3] -0.163 | [4] 0.086 | [5] 0.107 | [7] -0.091 | [8] 0.001 | [9] -0.183 | [10] -0.215 | [13] -0.162 | [14] 0.081 | [15] -0.023 | [16] -0.25 | [17] -0.062 | [19] -0.195

UFM1 isoform 2 (UniProt P61960)
inactive: [1] -0.132 | [2] 0.108 | [3] 0.06 | [4] 0.14 | [5] 0.07 | [6] 0.032 | [8] -0.003 | [9] 0.08 | [10] 0.004 | [12] 0.025 | [13] 0.052 | [15] 0.018 | [16] -0.013 | [19] 0.035

URM1 isoform 2 (UniProt Q9BTM9)
inactive: [1] -0.005 | [2] -0.082 | [4] 0.068 | [5] 0.108 | [6] 0.131 | [7] 0.057 | [8] 0.212 | [9] -0.072 | [10] 0.136 | [11] 0.055 | [12] -0.05 | [13] -0.024 | [14] -0.114 | [16] -0.074 | [17] -0.073 | [18] 0.006 | [20] -0.07 | [19] 0.1

USP7 (UniProt Q93009)
inactive: [1] 0.089 | [2] 0.139 | [3] 0.046 | [4] 0 | [5] 0.159 | [6] 0.004 | [7] 0.068 | [8] 0.085 | [9] -0.04 | [10] -0.003 | [11] -0.102 | [12] -0.021 | [13] -0.078 | [14] 0 | [15] -0.172 | [16] -0.198 | [17] 0.012 | [18] 0.024 | [19] 0.17
